Assay [1] concerns the target T1, RIPK1 (mouse (endogenous in primary astrocytes)) (UniProt Q60855).
T1 sequence: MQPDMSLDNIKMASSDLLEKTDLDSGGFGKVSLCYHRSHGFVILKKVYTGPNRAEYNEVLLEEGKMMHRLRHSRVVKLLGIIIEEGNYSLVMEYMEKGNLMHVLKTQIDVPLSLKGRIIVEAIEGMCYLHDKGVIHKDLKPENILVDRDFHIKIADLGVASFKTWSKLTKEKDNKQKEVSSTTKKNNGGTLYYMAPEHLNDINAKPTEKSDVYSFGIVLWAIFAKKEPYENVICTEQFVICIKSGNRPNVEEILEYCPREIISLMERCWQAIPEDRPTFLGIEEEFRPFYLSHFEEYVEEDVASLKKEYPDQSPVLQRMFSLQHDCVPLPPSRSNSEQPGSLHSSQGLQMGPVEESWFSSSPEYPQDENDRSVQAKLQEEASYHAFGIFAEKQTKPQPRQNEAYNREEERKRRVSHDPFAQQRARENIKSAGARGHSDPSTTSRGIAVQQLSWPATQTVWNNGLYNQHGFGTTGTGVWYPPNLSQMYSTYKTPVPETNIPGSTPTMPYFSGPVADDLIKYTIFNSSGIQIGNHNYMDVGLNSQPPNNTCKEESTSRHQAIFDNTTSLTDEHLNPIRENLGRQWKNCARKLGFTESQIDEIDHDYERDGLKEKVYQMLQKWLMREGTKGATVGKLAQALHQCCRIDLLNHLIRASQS
Kind of assay: co-IP; anti-RIPK1 antibody on whole cell lysates (RIPA) of OTUD7B-sufficient and -deficient primary mouse astrocytes, GammaBind G Sepharose, 4 °C overnight, Western blot; TNF 20 ng/mL for up to 5 days (Fig. 7D) or 10, 20, 50 ng/mL for 5 days (Fig. 7H). For orientation: Immunoblotting shows a protein as a band on a membrane.

Sequences of proteins named here, by UniProt entry; tags and fusion partners are left off.
UniProt P03995: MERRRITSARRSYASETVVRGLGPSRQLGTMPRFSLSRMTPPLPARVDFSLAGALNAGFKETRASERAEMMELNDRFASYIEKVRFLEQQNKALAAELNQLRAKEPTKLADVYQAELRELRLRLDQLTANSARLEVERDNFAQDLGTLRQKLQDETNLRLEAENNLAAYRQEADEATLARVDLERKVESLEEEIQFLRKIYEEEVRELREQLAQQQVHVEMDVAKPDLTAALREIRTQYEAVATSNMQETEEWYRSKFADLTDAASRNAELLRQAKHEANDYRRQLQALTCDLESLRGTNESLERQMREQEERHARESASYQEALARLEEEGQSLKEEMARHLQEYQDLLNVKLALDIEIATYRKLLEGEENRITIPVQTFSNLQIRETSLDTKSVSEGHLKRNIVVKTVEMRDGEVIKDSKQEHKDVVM

Assay [2] addresses glial fibrillary acidic protein (GFAP) (mouse (endogenous in primary astrocytes)) (UniProt P03995). Description: co-IP; anti-GFAP antibody on total protein lysates (RIPA) of primary mouse astrocytes stimulated with 50 ng/mL TNF for the indicated times, GammaBind G Sepharose, Western blot for GFAP, OTUD7B and K48 ubiquitin chains (Fig. 8F).

Results are given in words; binding and its absence hold for the method and conditions named. In cells and extracts the contact can be indirect. Some results given as binding are weak or reduced against the parent protein; the word gives no strength.

B1: OTUD7B (enzyme, UniProt B2RUR8 1-840)
chain: MTLDMDAVLSDFVRSTGAEPGLARDLLEGKNWDVSAALSDFEQLRQVHAGNLSPPFSGGSTCPKTPEKGGSDREPTRPSRPILQRQDDVIQEKRLSRGISHASSSIVSLARSHVSSNGGGGGSSEHPLEMPICAFQLPDLTVYKEDFRSFIERDLIEQSMLVALEQAGRLNWWVSMDSTCQRLLPLATTGDGNCLLHAASLGMWGFHDRDLVLRKALYALMEKGVEKEALRRRWRWQQTQQNKESGLVYTEDEWQKEWNELIKLASSEPRMHLGSNGASGGGVESSEEPVYESLEEFHVFVLAHVLKRPIVVVADTMLRDSGGEAFAPIPFGGIYLPLEVPASQCHRSPLVLAYDQAHFSALVSMEQKESAKEQAVIPLTDSEHKLLPLHFAVDPGKGWEWGKDDNDNVRLASIILSLEVKLHLLHSYMNVKWIPLSSDSQAPLAQPESPTASAGDEPRSTPESGESDKESVGSSSLGNEGSRRKEKSKRDREKDKKRADSVANKLGSFGKTLGSKLKKNMGGLMHSKGPKPGGLGSGSGISSGTETLEKKKKNNTLKSWKGGKEEAAGDGPVSEKPPSESVGNGGSKYSQEVMQSLSTMRIAMQGEGKYIFVGTLKMGHRHQYQEEMIQRYLADAEERFLAEQKQKEVERKIMNGGLVSGPPPAKKPEPDGGEDQPSDSPAEPKAMAFSTAYPGGFTIPRPSGGGVHCQEPRRQLAGGPCVGGLPSYATFPRQYPGRPYPHQDNIPALEPGKDGVHRGALLPPQFRVADSYSNGYREPPEPDGWAGAPRGLPPTQTKCKQPNCSFYGHPETNNLCSCCYREELRRREREPGGELLAHRF
In the case of B1, the binding entry in assay [1] and in assay [2] was “binds” throughout.

B2: TRAF2 (protein, UniProt P39429 1-501)
chain: MAAASVTSPGSLELLQPGFSKTLLGTRLEAKYLCSACKNILRRPFQAQCGHRYCSFCLTSILSSGPQNCAACVYEGLYEEGISILESSSAFPDNAARREVESLPAVCPNDGCTWKGTLKEYESCHEGLCPFLLTECPACKGLVRLSEKEHHTEQECPKRSLSCQHCRAPCSHVDLEVHYEVCPKFPLTCDGCGKKKIPRETFQDHVRACSKCRVLCRFHTVGCSEMVETENLQDHELQRLREHLALLLSSFLEAQASPGTLNQVGPELLQRCQILEQKIATFENIVCVLNREVERVAVTAEACSRQHRLDQDKIEALSNKVQQLERSIGLKDLAMADLEQKVSELEVSTYDGVFIWKISDFTRKRQEAVAGRTPAIFSPAFYTSRYGYKMCLRVYLNGDGTGRGTHLSLFFVVMKGPNDALLQWPFNQKVTLMLLDHNNREHVIDAFRPDVTSSSFQRPVSDMNIASGCPLFCPVSKMEAKNSYVRDDAIFIKAIVDLTGL
In the case of B2, the binding result in assay [1] is given as “binds”.

The values above are taken from article PMC12537900.
